{"source": "the supplement of paper PMC4807443", "note": "Counter-ions that a name gives are not always drawn. Some of the results follow. The numbers are fractions of the control, whatever unit the source prints. Most values lie at the level of the controls, where differences are scatter.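 A lentiviral reporter stably expressed in MIN6 mouse insulinoma beta cells uses Pdx1 and Ins1 promoters to drive separate nucleus-targeted fluorescent proteins; automated imaging with Hoechst nuclear stain counted cells. Possible hits were drugs shifting Ins1 promoter signal more than two median absolute deviations from DMSO controls, with Pdx1 activity roughly normal.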"}
{"test_system": "MIN6", "experiment": "% Pdx1+ Ins1+ (double-positive, mature) cells relative to DMSO control (fold of DMSO control); higher = more mature Ins1 promoter-active cells", "settings": "8.5 µM; 48 h; glucose 5 mM"}
{"smiles": "CCOC1O[C@H]([C@@H](COCc2ccccc2)OCc2ccccc2)[C@H](OCc2ccccc2)[C@H]1O", "note": "(stereo not given in full) [Tribenoside]", "% Pdx1+ Ins1+": 0.982}
{"smiles": "CC(=O)c1cc2ccccc2oc1=O", "note": "[3-Acetylcoumarin]", "% Pdx1+ Ins1+": 1}
{"smiles": "CC(=O)Nc1c(I)c(C(=O)N[C@H]2C(O)O[C@H](CO)[C@@H](O)[C@@H]2O)c(I)c(N(C)C(C)=O)c1I", "note": "(stereo not given in full) [Metrizamide]", "% Pdx1+ Ins1+": 0.943}
{"smiles": "CCN(CC)CCNC(=O)c1ccc(N)cc1", "note": "[Procainamide hydrochloride]", "% Pdx1+ Ins1+": 0.959}
{"smiles": "CN[C@H]1CC[C@@H](c2ccc(Cl)c(Cl)c2)c2ccccc21", "note": "[Sertraline]", "% Pdx1+ Ins1+": 0.875}
{"smiles": "C[C@@H]1CCC[C@H](C)N1NC(=O)c1ccc(Cl)c(S(N)(=O)=O)c1", "note": "[Clopamide]", "% Pdx1+ Ins1+": 1.12}
{"smiles": "CC(C)[N+]1(C)[C@@H]2CC[C@H]1C[C@@H](OC(=O)C(CO)c1ccccc1)C2", "note": "(stereo not given in full) [Ipratropium bromide]", "% Pdx1+ Ins1+": 0.984}
{"smiles": "CC(CNC1CCCCC1)OC(=O)c1ccccc1", "note": "(stereo not given) [Hexylcaine hydrochloride]", "% Pdx1+ Ins1+": 0.887}
{"smiles": "Nc1ccc(S(=O)(=O)Nc2nccs2)cc1", "note": "[Sulfathiazole]", "% Pdx1+ Ins1+": 1.12}
{"smiles": "CO/N=C(\\C(=O)N[C@@H]1C(=O)N2C(C(=O)O)=C(COC(C)=O)CS[C@H]12)c1csc(N)n1", "note": "[Cefotaxime sodium salt]", "% Pdx1+ Ins1+": 0.992}
{"smiles": "O=C(O)[C@@H]1[C@H]2C[C@H]3c4[nH]c5ccccc5c4CCN3C[C@@H]2CC[C@@H]1O", "note": "[Yohimbinic acid monohydrate]", "% Pdx1+ Ins1+": 0.934}
{"smiles": "COc1cc(CNC(=O)CCCC/C=C/C(C)C)ccc1O", "note": "[Capsaicin]", "% Pdx1+ Ins1+": 0.855}
{"smiles": "CCCCOc1cc(C(=O)OCCN(CC)CC)ccc1N", "note": "[Benoxinate hydrochloride]", "% Pdx1+ Ins1+": 0.973}
{"smiles": "Cc1cc2cc3c(C)cc(=O)oc3c(C)c2o1", "note": "[Trioxsalen]", "% Pdx1+ Ins1+": 1.01}
{"smiles": "CC(=O)Nc1nnc(S(N)(=O)=O)s1", "note": "[Acetazolamide]", "% Pdx1+ Ins1+": 1.1}
{"smiles": "CCCOc1ccccc1-c1nc2[nH]nnc2c(=O)[nH]1", "note": "[Zaprinast]", "% Pdx1+ Ins1+": 0.901}
{"smiles": "CC#C[C@]1(O)CC[C@H]2[C@@H]3CCC4=CC(=O)CCC4=C3[C@@H](c3ccc(N(C)C)cc3)C[C@@]21C", "note": "[Mifepristone]", "% Pdx1+ Ins1+": 0.843}
{"smiles": "COc1ccc(Cl)cc1C(=O)NCCc1ccc(S(=O)(=O)NC(=O)NC2CCCCC2)cc1", "note": "[Glibenclamide]", "% Pdx1+ Ins1+": 1.08}
{"smiles": "C[C@@H]1C/C=C/C=C/C=C/C=C/[C@H](O[C@@H]2O[C@H](C)[C@@H](O)[C@H](N)[C@@H]2O)C[C@@H]2O[C@](O)(C[C@@H](O)C[C@H]3O[C@@H]3/C=C/C(=O)O1)C[C@H](O)[C@H]2C(=O)O", "note": "[Natamycin]", "% Pdx1+ Ins1+": 0.887}
{"smiles": "CC(C(O)c1ccc(O)cc1)N1CCC(Cc2ccccc2)CC1", "note": "(stereo not given) [Ifenprodil tartrate]", "% Pdx1+ Ins1+": 1.07}
{"smiles": "CN(C(=O)CN(CCO)CC(=O)N(C)C(C)(C)Cc1ccccc1)C(C)(C)Cc1ccccc1", "note": "[Oxethazaine]", "% Pdx1+ Ins1+": 1.08}
{"smiles": "Cc1cc(C)nc(NS(=O)(=O)c2ccc(N)cc2)n1", "note": "[Sulfamethazine sodium salt]", "% Pdx1+ Ins1+": 0.983}
{"smiles": "COc1cc(NS(=O)(=O)c2ccc(N)cc2)ncn1", "note": "[Sulfamonomethoxine]", "% Pdx1+ Ins1+": 0.999}
{"smiles": "NC[C@H]1O[C@H](O[C@H]2[C@H](O)[C@@H](O[C@H]3O[C@H](CO)[C@@H](O)[C@H](N)[C@H]3O)[C@H](N)C[C@@H]2N)[C@H](N)C[C@@H]1O", "note": "[Tobramycin]", "% Pdx1+ Ins1+": 0.951}
{"smiles": "C=CCOc1ccccc1OCC(O)CNC(C)C", "note": "(stereo not given) [Oxprenolol hydrochloride]", "% Pdx1+ Ins1+": 0.901}
{"smiles": "Cc1c(N)c(=O)n(-c2ccccc2)n1C", "note": "[Ampyrone]", "% Pdx1+ Ins1+": 1.03}
{"smiles": "CCN(CC)CCOCCOC(=O)C1(c2ccccc2)CCCC1", "note": "[Carbetapentane citrate]", "% Pdx1+ Ins1+": 0.89}
{"smiles": "Cc1cc(C(C)(C)C)cc(C)c1CC1=NCCN1", "note": "[Xylometazoline hydrochloride]", "% Pdx1+ Ins1+": 0.846}
{"smiles": "CCN(CCCCOC(=O)c1ccc(OC)c(OC)c1)C(C)Cc1ccc(OC)cc1", "note": "(stereo not given) [Mebeverine hydrochloride]", "% Pdx1+ Ins1+": 1.02}
{"smiles": "CC(C)(CO)[C@@H](O)C(=O)NCCC(=O)O", "note": "[Pantothenic acid calcium salt monohydrate]", "% Pdx1+ Ins1+": 1.05}
{"smiles": "COc1cc2nc(N3CCN(C(=O)C4COc5ccccc5O4)CC3)nc(N)c2cc1OC", "note": "(stereo not given) [Doxazosin mesylate]", "% Pdx1+ Ins1+": 0.895}
{"smiles": "O=c1c(O)c(-c2ccc(O)cc2)oc2cc(O)cc(O)c12", "note": "[Kaempferol]", "% Pdx1+ Ins1+": 0.809}
{"smiles": "CCCCC1C(=O)N(c2ccccc2)N(c2ccc(O)cc2)C1=O", "note": "(stereo not given) [Oxyphenbutazone]", "% Pdx1+ Ins1+": 0.923}
{"smiles": "N[C@H]1CONC1=O", "note": "[(S)-(-)-Cycloserine]", "% Pdx1+ Ins1+": 0.911}
{"smiles": "CC1=CC(=O)c2ccccc2C1=O", "note": "[Menadione]", "% Pdx1+ Ins1+": 0.4}
{"smiles": "CC(=O)/N=c1/sc(S(N)(=O)=O)nn1C", "note": "[Methazolamide]", "% Pdx1+ Ins1+": 0.998}
{"smiles": "N=C(N)N1CCc2ccccc2C1", "note": "[Debrisoquin sulfate]", "% Pdx1+ Ins1+": 1.03}
{"smiles": "CCCCOC(=O)c1ccc(O)cc1", "note": "[Butylparaben]", "% Pdx1+ Ins1+": 0.859}
{"smiles": "O=C(O)Cc1cc(I)c(Oc2ccc(O)c(I)c2)c(I)c1", "note": "[Tiratricol, 3,3',5-triiodothyroacetic acid]", "% Pdx1+ Ins1+": 1.19}
{"smiles": "O=C(CCCCC(=O)Nc1c(I)cc(I)c(C(=O)O)c1I)Nc1c(I)cc(I)c(C(=O)O)c1I", "note": "[Iodipamide]", "% Pdx1+ Ins1+": 0.916}
{"smiles": "C[C@@H]1O[C@@H](O[C@H]2[C@H](Oc3cc(O)c4c(c3)O[C@H](c3ccc(O)cc3)CC4=O)O[C@H](CO)[C@@H](O)[C@@H]2O)[C@H](O)[C@H](O)[C@H]1O", "note": "[Naringin hydrate]", "% Pdx1+ Ins1+": 0.979}
{"smiles": "N=C(N=C(N)N)N1CCOCC1", "note": "[Moroxidine hydrochloride]", "% Pdx1+ Ins1+": 1.09}
{"smiles": "CC(=O)Nc1ccc(OCC(O)CNC(C)C)cc1", "note": "(stereo not given) [Practolol]", "% Pdx1+ Ins1+": 0.935}
{"smiles": "CCCC(=O)Nc1ccc(OCC(O)CNC(C)C)c(C(C)=O)c1", "note": "(stereo not given) [Acebutolol hydrochloride]", "% Pdx1+ Ins1+": 1.05}
{"smiles": "O=C(Nc1ccccc1)OCC(CN1CCCCC1)OC(=O)Nc1ccccc1", "note": "(stereo not given) [Diperodon hydrochloride]", "% Pdx1+ Ins1+": 0.993}
{"smiles": "Nc1nc(=O)[nH]cc1F", "note": "[Flucytosine]", "% Pdx1+ Ins1+": 1.02}
{"smiles": "CC(=O)O[C@]1(C(C)=O)CC[C@H]2[C@@H]3C=C(C)C4=CC(=O)CC[C@]4(C)[C@H]3CC[C@@]21C", "note": "[Megestrol acetate]", "% Pdx1+ Ins1+": 0.95}
{"smiles": "Cc1cccc(C)c1NC(=O)CN1CCN(CCCC(c2ccc(F)cc2)c2ccc(F)cc2)CC1", "note": "[Lidoflazine]", "% Pdx1+ Ins1+": 0.892}
{"smiles": "CC(C)(C)NCC(O)COc1cccc2c1CC(O)C(O)C2", "note": "(stereo not given) [Nadolol]", "% Pdx1+ Ins1+": 1.13}
{"smiles": "CC1=C(C(=O)O)N2C(=O)[C@@H](NC(=O)[C@H](N)c3ccccc3)[C@H]2SC1", "note": "[Cephalexin monohydrate]", "% Pdx1+ Ins1+": 0.934}
{"smiles": "COc1ccc2c(c1)c(CC(=O)OCC(=O)O)c(C)n2C(=O)c1ccc(Cl)cc1", "note": "[Acemetacin]", "% Pdx1+ Ins1+": 1.08}
{"smiles": "Cc1nccn1CC1CCc2c(c3ccccc3n2C)C1=O", "note": "(stereo not given) [Ondansetron Hydrochloride]", "% Pdx1+ Ins1+": 0.99}
{"smiles": "NC(=O)c1cc[n+](CC2=C(C(=O)[O-])N3C(=O)[C@@H](NC(=O)Cc4cccs4)[C@H]3SC2)cc1", "note": "[Cefalonium]", "% Pdx1+ Ins1+": 0.913}
{"smiles": "O=C1C(O)=C(O)C(=O)C(O)=C1O", "note": "[Tetrahydroxy-1,4-quinone monohydrate]", "% Pdx1+ Ins1+": 0.984}
{"smiles": "COc1ccc2cc3[n+](cc2c1OC)CCc1cc2c(cc1-3)OCO2", "note": "[Berberine chloride]", "% Pdx1+ Ins1+": 0.482}
{"smiles": "COc1cc(NS(=O)(=O)c2ccc(N)cc2)nc(OC)n1", "note": "[Sulfadimethoxine]", "% Pdx1+ Ins1+": 1.02}
{"smiles": "CC[N+](CC)(CC(=O)Nc1c(C)cccc1C)Cc1ccccc1", "note": "[Denatonium benzoate]", "% Pdx1+ Ins1+": 1.05}
{"smiles": "C=N[C@@H](C(=O)N[C@@H]1C(=O)N2[C@@H]1SC(C)(C)[C@@H]2C(=O)O)c1ccccc1", "note": "[Metampicillin sodium salt]", "% Pdx1+ Ins1+": 1.13}
{"smiles": "COc1cc2ccc(=O)oc2cc1O", "note": "[Scopoletin]", "% Pdx1+ Ins1+": 0.86}
{"smiles": "NCCC(=O)NCCc1c[nH]cn1", "note": "[Carcinine]", "% Pdx1+ Ins1+": 1.07}
{"smiles": "Cc1cccc(Nc2ccncc2S(=O)(=O)NC(=O)NC(C)C)c1", "note": "[Torsemide]", "% Pdx1+ Ins1+": 0.945}
{"smiles": "CC(C)NC(=N)NC(=N)Nc1ccc(Cl)cc1", "note": "[Proguanil hydrochloride]", "% Pdx1+ Ins1+": 0.214}
{"smiles": "Cc1nnc(SCC2=C(C(=O)O)N3C(=O)[C@@H](NC(=O)Cn4cnnn4)[C@H]3SC2)s1", "note": "[Cefazolin sodium salt]", "% Pdx1+ Ins1+": 0.968}
{"smiles": "O=c1[nH]c(=O)n([C@H]2C[C@H](O)[C@@H](CO)O2)cc1C(F)(F)F", "note": "[Trifluridine]", "% Pdx1+ Ins1+": 0.521}
{"smiles": "COc1ccc2c3c1O[C@H]1C[C@@H](O)C=C[C@@]31CCN(C)C2", "note": "[Galanthamine hydrobromide]", "% Pdx1+ Ins1+": 0.828}
{"smiles": "CCCCCCCCNC(C)C(O)c1ccc(SC(C)C)cc1", "note": "(stereo not given) [Suloctidil]", "% Pdx1+ Ins1+": 0.976}
{"smiles": "CC(=O)CC(c1ccc([N+](=O)[O-])cc1)c1c(O)c2ccccc2oc1=O", "note": "(stereo not given) [Acenocoumarol]", "% Pdx1+ Ins1+": 1.04}
{"smiles": "O=C(CCCN1CCC(O)(c2ccc(Cl)cc2)CC1)c1ccc(F)cc1", "note": "[Haloperidol]", "% Pdx1+ Ins1+": 0.948}
{"smiles": "Cc1ccc(C)c(OCCCC(C)(C)C(=O)O)c1", "note": "[Gemfibrozil]", "% Pdx1+ Ins1+": 1.01}
{"smiles": "NC(=O)c1ccc[n+]([C@@H]2O[C@H](COP(=O)([O-])OP(=O)(O)OC[C@H]3O[C@@H](n4cnc5c(N)ncnc54)[C@H](O)[C@@H]3O)[C@@H](O)[C@H]2O)c1", "note": "[Nadide]", "% Pdx1+ Ins1+": 0.861}
{"smiles": "CNCCC=C1c2ccccc2C=Cc2ccccc21", "note": "[Norcyclobenzaprine]", "% Pdx1+ Ins1+": 0.775}
{"smiles": "CN1C(C(=O)Nc2ccccn2)=C(O)c2ccccc2S1(=O)=O", "note": "[Piroxicam]", "% Pdx1+ Ins1+": 1.18}
{"smiles": "COCCOC(=O)C1=C(C)NC(C)=C(C(=O)OC(C)C)C1c1cccc([N+](=O)[O-])c1", "note": "(stereo not given) [Nimodipine]", "% Pdx1+ Ins1+": 0.81}
{"smiles": "CC1(C)S[C@@H]2[C@H](NC(=O)[C@H](N)c3ccccc3)C(=O)N2[C@H]1C(=O)OC1OC(=O)c2ccccc21", "note": "(stereo not given in full) [Talampicillin hydrochloride]", "% Pdx1+ Ins1+": 0.915}
{"smiles": "NC(=O)OCC(O)COc1ccc(Cl)cc1", "note": "(stereo not given) [Chlorphensin carbamate]", "% Pdx1+ Ins1+": 1.01}
